Test results as given in the supplement of paper PMC10849652.
The list shows a part of the results.

The chains behind the UniProt entries cited, without tags or fusion partners. Where a name states a change or a piece, a line headed by the entry shows the natural chain unless it says otherwise.
UniProt Q5U649: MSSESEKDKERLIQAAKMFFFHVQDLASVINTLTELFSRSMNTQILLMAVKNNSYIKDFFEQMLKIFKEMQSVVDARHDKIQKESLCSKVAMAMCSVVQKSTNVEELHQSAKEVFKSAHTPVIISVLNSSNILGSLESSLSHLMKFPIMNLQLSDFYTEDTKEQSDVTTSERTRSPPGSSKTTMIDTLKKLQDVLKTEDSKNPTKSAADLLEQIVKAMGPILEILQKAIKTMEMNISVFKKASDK
UniProt Q7Z7L8: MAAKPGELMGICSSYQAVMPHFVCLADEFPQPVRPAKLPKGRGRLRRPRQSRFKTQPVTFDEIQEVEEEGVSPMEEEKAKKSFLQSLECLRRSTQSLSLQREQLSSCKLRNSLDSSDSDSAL
UniProt Q9BXL7: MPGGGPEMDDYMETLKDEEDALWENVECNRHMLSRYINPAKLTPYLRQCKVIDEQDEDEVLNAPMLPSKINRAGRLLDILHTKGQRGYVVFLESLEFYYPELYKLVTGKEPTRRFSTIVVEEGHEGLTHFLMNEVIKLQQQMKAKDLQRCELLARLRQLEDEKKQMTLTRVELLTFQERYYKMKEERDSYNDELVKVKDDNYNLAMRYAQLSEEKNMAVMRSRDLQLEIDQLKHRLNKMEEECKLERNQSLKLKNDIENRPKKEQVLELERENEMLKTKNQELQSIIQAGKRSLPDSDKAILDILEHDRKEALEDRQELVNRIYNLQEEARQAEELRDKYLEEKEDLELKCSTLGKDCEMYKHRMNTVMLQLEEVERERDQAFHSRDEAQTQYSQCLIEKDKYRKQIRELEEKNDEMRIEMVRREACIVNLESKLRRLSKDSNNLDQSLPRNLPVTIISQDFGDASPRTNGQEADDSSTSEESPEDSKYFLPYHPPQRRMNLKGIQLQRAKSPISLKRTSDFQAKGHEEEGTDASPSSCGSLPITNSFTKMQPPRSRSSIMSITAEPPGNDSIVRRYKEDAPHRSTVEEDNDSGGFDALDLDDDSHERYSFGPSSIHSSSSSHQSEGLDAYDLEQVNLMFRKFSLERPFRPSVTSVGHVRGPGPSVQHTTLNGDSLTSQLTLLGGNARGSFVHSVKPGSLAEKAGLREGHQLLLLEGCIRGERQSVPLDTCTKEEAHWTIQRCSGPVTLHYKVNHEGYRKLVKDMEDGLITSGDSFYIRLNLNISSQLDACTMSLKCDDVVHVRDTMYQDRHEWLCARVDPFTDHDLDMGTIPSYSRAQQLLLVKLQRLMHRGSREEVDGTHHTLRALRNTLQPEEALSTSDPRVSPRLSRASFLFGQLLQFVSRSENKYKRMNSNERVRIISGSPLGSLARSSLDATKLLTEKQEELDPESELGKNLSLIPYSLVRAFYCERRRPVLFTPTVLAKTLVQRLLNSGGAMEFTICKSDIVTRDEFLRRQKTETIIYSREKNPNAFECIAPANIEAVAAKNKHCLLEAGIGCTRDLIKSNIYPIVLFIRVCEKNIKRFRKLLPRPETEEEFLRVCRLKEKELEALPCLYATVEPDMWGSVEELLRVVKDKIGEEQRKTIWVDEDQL
UniProt Q05682: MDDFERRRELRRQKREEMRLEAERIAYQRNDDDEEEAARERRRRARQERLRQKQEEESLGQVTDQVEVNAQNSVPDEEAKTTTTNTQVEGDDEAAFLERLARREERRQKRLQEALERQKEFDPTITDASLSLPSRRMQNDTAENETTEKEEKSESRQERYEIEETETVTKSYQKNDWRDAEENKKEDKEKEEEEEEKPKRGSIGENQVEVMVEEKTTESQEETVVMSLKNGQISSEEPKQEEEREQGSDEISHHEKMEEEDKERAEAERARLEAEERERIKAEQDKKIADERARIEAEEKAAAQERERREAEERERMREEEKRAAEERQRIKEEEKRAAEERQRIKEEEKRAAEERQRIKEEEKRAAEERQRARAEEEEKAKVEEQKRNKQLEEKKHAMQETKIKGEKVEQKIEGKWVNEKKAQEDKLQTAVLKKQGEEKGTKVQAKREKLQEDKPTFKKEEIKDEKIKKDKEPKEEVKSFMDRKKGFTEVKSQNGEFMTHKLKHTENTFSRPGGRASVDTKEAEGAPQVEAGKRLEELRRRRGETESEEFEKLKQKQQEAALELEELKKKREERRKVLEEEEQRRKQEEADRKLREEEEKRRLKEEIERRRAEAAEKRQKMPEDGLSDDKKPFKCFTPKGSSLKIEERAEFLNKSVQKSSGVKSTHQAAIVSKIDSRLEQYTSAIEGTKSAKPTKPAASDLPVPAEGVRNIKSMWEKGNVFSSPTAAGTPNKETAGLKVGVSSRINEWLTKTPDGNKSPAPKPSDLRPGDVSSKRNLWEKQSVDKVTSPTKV
UniProt Q9BSF8: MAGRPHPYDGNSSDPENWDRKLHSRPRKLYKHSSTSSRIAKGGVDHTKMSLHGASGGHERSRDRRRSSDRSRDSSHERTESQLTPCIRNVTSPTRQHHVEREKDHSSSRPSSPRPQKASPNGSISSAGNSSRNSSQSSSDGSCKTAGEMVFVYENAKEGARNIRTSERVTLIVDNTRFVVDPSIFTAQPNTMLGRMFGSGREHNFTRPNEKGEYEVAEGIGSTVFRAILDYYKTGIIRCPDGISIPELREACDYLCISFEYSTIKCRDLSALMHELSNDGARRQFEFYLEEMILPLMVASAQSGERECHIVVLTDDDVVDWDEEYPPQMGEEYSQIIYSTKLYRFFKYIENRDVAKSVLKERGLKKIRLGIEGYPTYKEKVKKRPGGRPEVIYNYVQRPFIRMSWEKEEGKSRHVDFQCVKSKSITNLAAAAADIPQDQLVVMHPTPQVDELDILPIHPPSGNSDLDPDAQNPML
UniProt Q9BUW7: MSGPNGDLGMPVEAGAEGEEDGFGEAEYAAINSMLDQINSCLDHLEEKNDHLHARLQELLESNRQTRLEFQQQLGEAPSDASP
UniProt Q06187: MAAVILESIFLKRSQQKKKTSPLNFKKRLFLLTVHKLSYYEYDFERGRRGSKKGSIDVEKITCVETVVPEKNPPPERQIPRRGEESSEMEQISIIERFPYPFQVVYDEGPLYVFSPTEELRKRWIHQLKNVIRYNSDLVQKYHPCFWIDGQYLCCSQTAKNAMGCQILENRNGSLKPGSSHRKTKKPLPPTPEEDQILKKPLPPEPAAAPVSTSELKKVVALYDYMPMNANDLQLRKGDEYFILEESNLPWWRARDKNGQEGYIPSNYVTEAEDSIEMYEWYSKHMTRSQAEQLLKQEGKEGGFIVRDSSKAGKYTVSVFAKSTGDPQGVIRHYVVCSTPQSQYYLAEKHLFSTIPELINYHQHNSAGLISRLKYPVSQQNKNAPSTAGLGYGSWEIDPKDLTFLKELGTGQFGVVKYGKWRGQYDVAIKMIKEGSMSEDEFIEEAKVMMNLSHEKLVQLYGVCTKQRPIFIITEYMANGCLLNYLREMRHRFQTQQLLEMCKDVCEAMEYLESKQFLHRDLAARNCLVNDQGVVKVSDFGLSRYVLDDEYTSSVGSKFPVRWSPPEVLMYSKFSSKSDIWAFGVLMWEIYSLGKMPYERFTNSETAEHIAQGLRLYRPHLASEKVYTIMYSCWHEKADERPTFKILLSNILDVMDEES
UniProt Q16581: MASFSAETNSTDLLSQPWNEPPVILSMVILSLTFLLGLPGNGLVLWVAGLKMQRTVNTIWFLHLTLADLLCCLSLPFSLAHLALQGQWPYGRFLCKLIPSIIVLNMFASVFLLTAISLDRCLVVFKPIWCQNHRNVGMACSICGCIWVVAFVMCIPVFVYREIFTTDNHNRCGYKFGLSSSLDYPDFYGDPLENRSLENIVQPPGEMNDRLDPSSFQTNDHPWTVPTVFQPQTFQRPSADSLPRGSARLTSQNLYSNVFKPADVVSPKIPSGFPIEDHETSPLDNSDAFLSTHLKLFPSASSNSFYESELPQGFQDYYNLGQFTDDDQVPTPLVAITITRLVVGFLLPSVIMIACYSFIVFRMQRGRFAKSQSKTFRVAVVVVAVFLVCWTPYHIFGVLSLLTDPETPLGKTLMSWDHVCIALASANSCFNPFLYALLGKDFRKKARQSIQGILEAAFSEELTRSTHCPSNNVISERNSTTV
UniProt Q8N1Q1: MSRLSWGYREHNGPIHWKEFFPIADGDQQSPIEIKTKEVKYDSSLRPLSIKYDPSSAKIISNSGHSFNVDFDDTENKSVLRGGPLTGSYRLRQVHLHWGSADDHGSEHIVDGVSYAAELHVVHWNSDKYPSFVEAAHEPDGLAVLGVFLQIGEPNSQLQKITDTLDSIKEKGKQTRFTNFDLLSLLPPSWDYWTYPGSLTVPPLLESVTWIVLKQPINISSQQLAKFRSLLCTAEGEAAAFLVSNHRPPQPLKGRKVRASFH
UniProt Q96N11, whole entry, looked up: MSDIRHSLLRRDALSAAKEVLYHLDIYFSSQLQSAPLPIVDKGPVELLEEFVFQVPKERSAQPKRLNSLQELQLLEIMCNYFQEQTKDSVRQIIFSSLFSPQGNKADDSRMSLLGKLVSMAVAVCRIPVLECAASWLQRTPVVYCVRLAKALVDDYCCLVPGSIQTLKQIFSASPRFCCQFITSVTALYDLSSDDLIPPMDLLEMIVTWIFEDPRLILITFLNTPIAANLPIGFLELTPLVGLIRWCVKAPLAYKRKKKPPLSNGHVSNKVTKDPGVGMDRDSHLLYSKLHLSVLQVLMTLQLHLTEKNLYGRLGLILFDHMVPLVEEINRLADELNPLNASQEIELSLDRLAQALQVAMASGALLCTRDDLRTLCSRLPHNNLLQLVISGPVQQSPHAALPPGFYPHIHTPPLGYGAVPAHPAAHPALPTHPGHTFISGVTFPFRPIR
UniProt Q504U0: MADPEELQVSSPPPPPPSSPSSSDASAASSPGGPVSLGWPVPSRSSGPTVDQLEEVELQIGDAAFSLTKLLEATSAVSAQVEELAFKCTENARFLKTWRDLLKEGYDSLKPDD
UniProt Q9GZU0: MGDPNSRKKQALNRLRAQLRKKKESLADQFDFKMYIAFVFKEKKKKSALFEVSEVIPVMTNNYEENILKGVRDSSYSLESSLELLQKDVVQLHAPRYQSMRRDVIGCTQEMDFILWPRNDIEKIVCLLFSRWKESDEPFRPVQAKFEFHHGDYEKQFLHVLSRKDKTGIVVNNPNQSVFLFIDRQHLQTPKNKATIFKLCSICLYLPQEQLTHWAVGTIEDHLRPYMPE
UniProt P07451: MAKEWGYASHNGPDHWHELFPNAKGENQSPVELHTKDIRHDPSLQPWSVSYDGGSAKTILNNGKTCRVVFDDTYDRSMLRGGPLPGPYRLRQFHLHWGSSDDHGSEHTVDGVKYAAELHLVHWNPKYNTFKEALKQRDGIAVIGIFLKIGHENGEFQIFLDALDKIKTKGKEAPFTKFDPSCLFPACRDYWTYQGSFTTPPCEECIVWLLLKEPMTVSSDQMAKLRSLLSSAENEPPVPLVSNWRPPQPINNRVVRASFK
UniProt Q96NL8: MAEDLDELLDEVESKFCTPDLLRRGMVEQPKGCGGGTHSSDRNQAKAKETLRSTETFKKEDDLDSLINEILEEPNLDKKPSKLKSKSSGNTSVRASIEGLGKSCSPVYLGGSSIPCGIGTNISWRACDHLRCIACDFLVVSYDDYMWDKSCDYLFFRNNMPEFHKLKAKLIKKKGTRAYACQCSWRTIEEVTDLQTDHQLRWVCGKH
UniProt Q6UX52: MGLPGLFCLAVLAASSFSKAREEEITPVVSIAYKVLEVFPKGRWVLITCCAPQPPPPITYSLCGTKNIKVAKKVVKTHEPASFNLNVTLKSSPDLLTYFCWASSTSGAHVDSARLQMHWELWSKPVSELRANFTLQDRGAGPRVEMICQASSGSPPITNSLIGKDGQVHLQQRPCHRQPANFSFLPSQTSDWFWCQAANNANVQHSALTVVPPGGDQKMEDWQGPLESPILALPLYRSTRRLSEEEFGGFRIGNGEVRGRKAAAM
UniProt Q0VDD7: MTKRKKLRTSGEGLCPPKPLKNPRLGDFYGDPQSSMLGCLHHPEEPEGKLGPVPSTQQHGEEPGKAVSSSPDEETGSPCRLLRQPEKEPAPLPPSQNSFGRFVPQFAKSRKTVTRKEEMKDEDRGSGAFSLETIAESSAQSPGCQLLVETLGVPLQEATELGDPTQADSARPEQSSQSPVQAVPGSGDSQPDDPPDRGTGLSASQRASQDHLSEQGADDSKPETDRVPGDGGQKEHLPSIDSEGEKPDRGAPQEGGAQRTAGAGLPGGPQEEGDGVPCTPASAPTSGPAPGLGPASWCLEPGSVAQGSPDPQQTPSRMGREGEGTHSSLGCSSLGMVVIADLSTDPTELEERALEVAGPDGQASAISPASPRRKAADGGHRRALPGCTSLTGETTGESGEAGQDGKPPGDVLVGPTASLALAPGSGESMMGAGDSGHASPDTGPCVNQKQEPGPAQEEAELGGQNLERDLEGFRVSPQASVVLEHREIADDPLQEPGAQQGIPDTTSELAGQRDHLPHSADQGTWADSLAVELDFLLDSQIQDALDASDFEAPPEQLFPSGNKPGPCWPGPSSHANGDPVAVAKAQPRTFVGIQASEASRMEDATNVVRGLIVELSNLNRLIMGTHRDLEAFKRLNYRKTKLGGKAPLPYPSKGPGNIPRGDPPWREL

The targets below were run with CC[C@@H]1C(=O)N(C)c2cnc(Nc3ccc(C(=O)N[C@H]4CC[C@H](N5CCN(CC6CC6)CC5)CC4)cc3OC)nc2N1C(C)C [volasertib] (assay: log2 fold change, soluble protein after heating vs DMSO (PISA); higher = thermal stabilisation; K562 cells, 10 uM, 30 min; active = over 0.2 and 3.5 SD of the protein, either way, in both replicates (recomputed)).
Outline: (§1)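 K562 cells at 2×10^6 cells/mL were treated with 10 μM compound for 30 min. Aliquots were heated for 3 min across 48°C-58°C, pooled, and extracted in PBS with 0.5% NP-40 at 4°C; soluble protein was the supernatant after 21,000xg for 90 min. Soluble protein was quantified by TMTpro 16plex LC-MS/MS with channel sums equalised, and reported as log2 fold change in thermal stability against DMSO controls, with values from duplicates.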

| Target | log2 fold change |
| --- | --- |
| C12orf60 (UniProt Q5U649) | inactive: -0.263 |
| C11orf96 (UniProt Q7Z7L8) | inactive: 0 |
| CARD11 (UniProt Q9BXL7) | inactive: -0.194 |
| CALD1 (UniProt Q05682) | inactive: -0.573 |
| CAMKK1 isoform 2 (UniProt Q8N5S9) | inactive: 0.664 |
| BTBD10 isoform 2 (UniProt Q9BSF8) | inactive: 0.014 |

What follows are targets tested with CC[C@H](C)N1C=C(C2=C(C=C(C=C21)C3=CN=C(C=C3)N4CCNCC4)C(=O)NCC5=C(C=C(NC5=O)C)C)C in the same assay as above.
Outline: as §1

| Target | log2 fold change |
| --- | --- |
| C9orf16 (UniProt Q9BUW7) | inactive: 0.037 |
| BTK isoform 2 (UniProt Q06187) | inactive: 0.022 |
| C3AR1 (UniProt Q16581) | inactive: -0.066 |
| CA13 (UniProt Q8N1Q1) | inactive: 0.089 |
| C3orf86 (UniProt P0DN24) | inactive: 0.247 |
| C7orf26 (UniProt Q96N11) | inactive: -0.009 |
| C4orf46 (UniProt Q504U0) | inactive: 0.265 |

These targets were tested with CC[C@H](C)[C@@H](C(=O)N[C@@H]([C@@H](C)O)C(=O)N[C@@H](CC(C)C)C(=O)[C@]1(CO1)C)NC(=O)[C@H]([C@@H](C)CC)N(C)C(=O)C [epoxomicin] in the same assay as above.
Outline: as §1

| Target | log2 fold change |
| --- | --- |
| C5 (UniProt P01031) | inactive: -0.25 |
| BTK isoform 2 (UniProt Q06187) | inactive: -0.152 |
| C6orf62 (UniProt Q9GZU0) | inactive: -0.007 |
| CA3 (UniProt P07451) | inactive: -0.215 |
| C9 (UniProt P02748) | inactive: -0.045 |
| C12orf60 (UniProt Q5U649) | inactive: 0.302 |
| C11orf96 (UniProt Q7Z7L8) | inactive: 0.136 |
| CA1 (UniProt E5RIF9) | inactive: 0.132 |
| CA13 (UniProt Q8N1Q1) | inactive: -0.003 |
| C8orf37 (UniProt Q96NL8) | inactive: 0.063 |
| CARD11 (UniProt Q9BXL7) | inactive: -0.032 |
| C17orf99 (UniProt Q6UX52) | inactive: -0.251 |
| CALD1 (UniProt Q05682) | inactive: -0.243 |
| C7orf26 (UniProt Q96N11) | inactive: 0 |
| C11orf24 (UniProt Q96F05) | inactive: -0.256 |

What follows are targets tested with CCn1c(C(=O)N(C2CC2)C2CC2)cc2c3c(ncn3C)c(Nc3cc(C)n(C)n3)nc21 in the same assay as above.
Outline: as §1

| Target | log2 fold change |
| --- | --- |
| CABIN1 (UniProt Q9Y6J0) | inactive: -0.005 |
| BTK isoform 2 (UniProt Q06187) | inactive: -0.053 |
| C6orf62 (UniProt Q9GZU0) | inactive: -0.051 |
| C12orf60 (UniProt Q5U649) | inactive: 0.033 |
| CA13 (UniProt Q8N1Q1) | inactive: 0.031 |
| C8orf37 (UniProt Q96NL8) | inactive: 0.074 |
| C17orf99 (UniProt Q6UX52) | inactive: -0.05 |
| CALD1 (UniProt Q05682) | inactive: -0.065 |
| C7orf26 (UniProt Q96N11) | inactive: -0.02 |
| CAPNS1 (UniProt U3KPR7) | inactive: 0.176 |
| C19orf57 (UniProt Q0VDD7) | inactive: -0.046 |
| C11orf24 (UniProt Q96F05) | inactive: -0.009 |
| CALM1 (UniProt G3V361) | inactive: 0.282 |
